Compounds and concentrations:
LFM-A13, 10 µM: C/C(O)=C(\C#N)C(=O)Nc1cc(Br)ccc1Br
TCS401, 8.33 µM: O=C(O)C(=O)Nc1sc2c(c1C(=O)O)CCNC2
NVP-TAE684, 0.4 µM: COc1cc(N2CCC(N3CCN(C)CC3)CC2)ccc1Nc1ncc(Cl)c(Nc2ccccc2S(=O)(=O)C(C)C)n1
ZM336372, 10 µM: Cc1ccc(NC(=O)c2cccc(N(C)C)c2)cc1NC(=O)c1ccc(O)cc1
perifosine, 2 µM: CCCCCCCCCCCCCCCCCCOP(=O)([O-])OC1CC[N+](C)(C)CC1
VX-702, 2 µM: NC(=O)c1ccc(N(C(N)=O)c2c(F)cccc2F)nc1-c1ccc(F)cc1F
lestaurtinib, 0.02 µM: C[C@]12O[C@H](C[C@]1(O)CO)n1c3ccccc3c3c4c(c5c6ccccc6n2c5c31)CNC4=O
nilotinib, 1 µM: Cc1cn(-c2cc(NC(=O)c3ccc(C)c(Nc4nccc(-c5cccnc5)n4)c3)cc(C(F)(F)F)c2)cn1
tozasertib, 0.03 µM: Cc1cc(Nc2cc(N3CCN(C)CC3)nc(Sc3ccc(NC(=O)C4CC4)cc3)n2)n[nH]1

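The test systems are human melanoma cell lines, treated with a pair of drugs for 72 h and then stained and imaged. Values are the share of nuclei positive for cleaved PARP as a percentage of the same share in the DMSO control: 100 is the control level, higher means more apoptosis. Concentrations were fixed for each drug; these are the higher of two levels. These are primary screening values without error estimates. Basal and induced levels differ widely between cell lines.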 Only some of the drugs and lines screened are listed, without regard to their results. A dash means that no value is listed here.

Drugs	A375	MZ2-MEL	501mel	UACC-62
VX-702 and lestaurtinib	454	49.5	-	268
lestaurtinib and nilotinib	104	83.0	-	155
perifosine and VX-702	17.8	77.4	-	261
ZM336372 and TCS401	34.6	69.6	189	147
NVP-TAE684 and LFM-A13	80.8	58.6	110	109
lestaurtinib and TCS401	41.6	114	37.3	180
NVP-TAE684 and VX-702	250	119	95.1	264
perifosine and tozasertib	163	161	-	122
tozasertib and VX-702	98.2	368	-	153
perifosine and LFM-A13	114	85.1	62.8	170
VX-702 and TCS401	35.3	78.8	92.2	168
lestaurtinib and tozasertib	90.2	153	-	106
tozasertib and NVP-TAE684	253	117	81.2	204
LFM-A13 and lestaurtinib	63.5	148	195	242
TCS401 and LFM-A13	67.2	66.4	25.7	101
nilotinib and perifosine	29.9	63.8	-	181
ZM336372 and perifosine	-	182	-	161
nilotinib and ZM336372	-	109	-	98.6
ZM336372 and VX-702	-	187	-	180
ZM336372 and lestaurtinib	-	245	-	133
ZM336372 and LFM-A13	153	91.5	118	266
nilotinib and NVP-TAE684	83.6	91.3	93.3	239
perifosine and TCS401	66.8	185	180	181
NVP-TAE684 and ZM336372	75.6	184	164	85.9
nilotinib and tozasertib	49.6	117	-	187
NVP-TAE684 and TCS401	90.5	-	-	288
VX-702 and LFM-A13	95.5	124	34.6	272
ZM336372 and tozasertib	-	157	-	182
TCS401 and tozasertib	25.7	252	330	109
nilotinib and LFM-A13	68.1	64.0	106	225
tozasertib and LFM-A13	91.1	153	103	236

For reference, 2 entries once more:

Drugs,A375,MZ2-MEL,501mel,UACC-62
nilotinib and LFM-A13,68.1,64.0,106,225
ZM336372 and TCS401,34.6,69.6,189,147

Data from the primary screen of doi:10.1371/journal.pone.0140310, rounded.